Consider 39 compounds from the supplement of paper PMC12872613.

Where a name gives a salt, the structure may show the parent alone. Some of the results follow. Rule as the data show it: active = 0.7 or more and inactive = the rest. Repeats are few or missing, and single values can be far off.

The assay relates to MiaPaCa-2 CLSA-25. Put plainly: cell death relative to DMSO vehicle (fraction); higher = more cytotoxic. To be noted: 5 µM; treatment time 48 h; medium cystine 25 µM.
For the compound `N[C@@H]1C[C@H]1c1ccccc1` [Tranylcypromine (2-PCPA) hydrochloride], the cell death is inactive: 0.4.
With `NNc1nncc2ccccc12` [Hydralazine hydrochloride], the cell death is inactive: 0.166.
Turning to `CCOc1cc(CC(=O)N[C@@H](CC(C)C)c2ccccc2N2CCCCC2)ccc1C(=O)O` [Repaglinide], the cell death is inactive: 0.0979.
Next, `O=C(O)[C@H](CC(=O)N1C[C@H]2CCCC[C@H]2C1)Cc1ccccc1` [Mitiglinide calcium]: active: 0.832.
In the case of `CC1=C(O)C(=O)C=C2C1=CC=C1[C@@]2(C)CC[C@@]2(C)[C@@H]3C[C@](C)(C(=O)O)CC[C@]3(C)CC[C@]12C` [Celastrol] it was active: 0.925; in that of `NCCCC(=O)O` [4-Aminobutyric acid], inactive: 0.00375; in that of `CC1(C)CCC(C)(C)c2cc(NC(=O)c3ccc(C(=O)O)cc3)ccc21` [Tamibarotene], inactive: 0.158.
Regarding `COc1cc(C)c(/C=C/C(C)=C/C=C/C(C)=C/C(=O)O)c(C)c1C` [Acitretin], the cell death is inactive: 0.15.
In the case of `Cc1cc(SCc2sc(-c3ccc(C(F)(F)F)c(F)c3)nc2C)ccc1OCC(=O)O`, the cell death was inactive: 0.00183.
In the case of `CC(C)c1cc(-c2n[nH]c(=O)n2-c2ccc3c(ccn3C)c2)c(O)cc1O` [Ganetespib], the cell death was inactive: 0.197.
On to `Nc1ccc(C(=O)O)c(O)c1` [Aminopar], for which the cell death is inactive: 0.242.
Next, `Nc1cc(-c2ccncc2)c[nH]c1=O` [Amrinone]: inactive: -0.0118.
Next, `NS(=O)(=O)c1cc2c(cc1C(F)(F)F)NC(Cc1ccccc1)NS2(=O)=O` (centres undefined) [Bendroflumethiazide]: inactive: 0.138; `COc1cc(-c2nc3ccccc3s2)ccc1O`: inactive: 0.121.
With `Cc1cccc(Nc2cc(Cl)nc(SCC(=O)O)n2)c1C` [Pirinixic Acid], the cell death is inactive: 0.396.
In the case of `Cc1c(C(=O)N2CCOc3ccc(-c4ccc(N)nc4)cc3C2)ccc(S(C)(=O)=O)c1F` it was inactive: 0.471; in that of `C[N+](C)(C)CCO.[Cl-]` [Choline chloride], inactive: 0.634.
Next, `NC(CO)C(=O)NNCc1ccc(O)c(O)c1O` (centres undefined) [Benserazide hydrochloride]: inactive: 0.00562.
In the case of `OC[C@H]1O[C@@H](Oc2ccc(O)cc2)[C@H](O)[C@@H](O)[C@@H]1O` [Arbutin] it was inactive: 0.139; in that of `C[C@](N)(Cc1ccc(O)c(O)c1)C(=O)O` [L-(-)-α-Methyldopa], inactive: 0.00535.
Turning to `C[C@H](CCC(=O)NCCS(=O)(=O)O)[C@H]1CC[C@H]2[C@@H]3[C@@H](O)C[C@@H]4C[C@H](O)CC[C@]4(C)[C@H]3CC[C@]12C` [Tauroursodeoxycholic Acid], the cell death is inactive: 0.612.
As to `C/C(O)=C(\C#N)C(=O)Nc1ccc(C(F)(F)F)cc1` [Teriflunomide], the cell death is inactive: 0.109.
For `CC1=C(/C=C/C(C)=C/C=C/C(C)=C/C=C/C=C(C)/C=C/C=C(C)/C=C/C2=C(C)C(=O)[C@@H](O)CC2(C)C)C(C)(C)C[C@H](O)C1=O` [Astaxanthin], the cell death was inactive: 0.00856.
On to `O=C(NC1CCN(CCCCC2(C(=O)NCC(F)(F)F)c3ccccc3-c3ccccc32)CC1)c1ccccc1-c1ccc(C(F)(F)F)cc1` [Lomitapide], for which the cell death is active: 0.929.
In the case of `COc1cnc(NS(=O)(=O)c2ccc(N)cc2)nc1` [Sulfameter] it was inactive: 0.095.
In the case of `OC[C@H](O)C(O)[C@@H](O)CO` [L-(-)-Arabitol] it was inactive: 0.277; in that of `Cc1[nH]c(=O)c(C#N)cc1-c1ccc2nccn2c1` [Olprinone], inactive: 0.533; in that of `Cc1ncc(CO)c(CO)c1O` [Metadoxine], active: 0.871.
For `CC(=O)Nc1nc(C)c(-c2ccc(Cl)c(S(=O)(=O)NCCO)c2)s1`, the cell death is inactive: 0.191.
Turning to `CC(C)=CCC[C@](C)(O[C@@H]1O[C@H](CO)[C@@H](O)[C@H](O)[C@H]1O)[C@H]1CC[C@]2(C)[C@@H]1[C@H](O)C[C@@H]1[C@@]3(C)CC[C@H](O)C(C)(C)[C@@H]3[C@@H](O)C[C@]12C` [Ginsenoside F1], the cell death was inactive: 0.473.
Next, `C[C@]12C=CC(=O)C=C1CC[C@@H]1[C@@H]2[C@@H](O)C[C@@]2(C)[C@H]1CC[C@]2(O)C(=O)CO` [Prednisolone]: inactive: 0.161; `Cc1ccccc1C(C(=O)NC1CCCCC1)N(C(=O)Cn1cnc2ccccc21)c1cccc(F)c1` (centres undefined): inactive: 0.146.
Next, `NC(=O)C[C@H](N)C(=O)O` [L-Asparagine]: inactive: 0.042.
Turning to `Nc1nc2[nH]cc(CCc3ccc(C(=O)O)cc3)c2c(=O)[nH]1` [Pemetrexed acid], the cell death is active: 0.826.
On to `Cn1c(=O)c2nc[nH]c2n(C)c1=O` [Theophylline monohydrate], for which the cell death is inactive: 0.119.
In the case of `O=C(O)CC(=O)C(=O)O` [Oxaloacetic acid], the cell death is inactive: 0.106.
In the case of `O=C(O)Cc1nn(Cc2ccc(Br)cc2F)c(=O)c2ccccc12` [Ponalrestat] it was inactive: 0.122; in that of `O=C(O)C(=O)c1cn(Cc2ccccc2)c2ccc(-c3ccc(OC(F)(F)F)cc3)cc12` [Tiplaxtinin], inactive: 0.2.
Next, `CC(N)CCCC(C)(C)O` (centres undefined) [Heptaminol hydrochloride]: inactive: 0.0556.
